Patent publication EP4790070A1 (Daegu Gyeongbuk Institute of Science and Technology, dated 2026)
Results are given in words; binding and its absence hold for the method and conditions named. Some binding calls cover weakened binding; strength is not graded here.

The chains behind the UniProt entries cited, without tags or fusion partners. Residues count along the entry.
UniProt P24807, residues 27-53: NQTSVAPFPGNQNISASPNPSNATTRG

Target: mouse CD24 on mouse cancer cell lines (4T1, LLC, B16F10) (mouse) (UniProt P24807)
Experiment: flow cytometry on fixed mouse cells (4T1, LLC, B16F10), FITC anti-human IgG

binding: binds
B1: anti-CD24 antibody #1 (Fc fusion)
VH: MAQVQLLESGGGVVQPGRSLRLSCAASGFTFSSYGMHWVRQAPGKGLEWVSGMSGDGLATYYADSVKGRFTISRDNSKNTLYLQMNSLRAEDTAVYYCARDSSSWYGGYYYYYGMDVWGQGTTVTVSSGS
VL: DIQMTQSPSSVSASVGDRVTITCRASQGISSWLAWYQQKPGKAPKLLIYAASSLQSGVPPRFSGSGSGTDFTLTISSLQPEDFATYYCQQSYSTPLTFGGGTKVEIKR
notes: also called Candidate 1; αCD24 antibody (#1)
